Most values lie at the floor of the assay. Slopes are relative: functional sequences can read slightly below zero. Bounds are passed on as bounds.

This series deals with Saccharomyces cerevisiae PS128 hsf1 delta, HSF1(1-493) fusion. The experiment in a line: growth estimate (transactivation domain function in HSF1 fusion, heat-shock survival) (a.u. (slope of normalised read count over time)); higher = stronger growth at 37°C, i.e. more transactivation activity. The note with it: library: random library.
WAKISCWDDVLNSCLQT: the growth estimate is 0.226.

GRAMQESRSAADL: the growth estimate was below -0.25.

In the case of RTT, the growth estimate is below -0.25.

On to QSRLRVTTQEFCSQLRTGPD, for which the growth estimate is below -0.25.

Turning to ASILWRGHVFWRSYMVLTAL, the growth estimate was below -0.25.

Take RRSLGRRESNAGI: the growth estimate is below -0.25.

Turning to ATESEVHILCH, the growth estimate is below -0.25.

As to SLSMRIIVGACKST, the growth estimate was below -0.25.

As to TRLLHSQICRQPRKLGSS, the growth estimate is below -0.25.

Take GLATSSCSLTPSWYL: the growth estimate is below -0.25.

Regarding CGPA, the growth estimate is below -0.25.

Turning to PSKKYEMRPLTGGYAD, the growth estimate is below -0.25.

On to YHVNVGMNLDGQKGENVASW, for which the growth estimate is -0.199.

As for AMAKSISESAV, the growth estimate was below -0.25.

As for NFYLLHKKSDGAGFWRGGSH, the growth estimate was below -0.25.

For the substance RLVEYLPYSRWLYSNTQYTY, the growth estimate is -0.237.

On to LGSSGALLGFHRLCGLLDE, for which the growth estimate is below -0.25.

On to YVAHVNSPTLVTSSQEGLSL, for which the growth estimate was below -0.25.

With YGLSGIGNSTRRLGGPITTR, the growth estimate is below -0.25.

Consider MGPGARMEMSRSQNLSLSRG, for which the growth estimate was below -0.25.

With KLRLGERRSAEASVKGWRPA, the growth estimate was below -0.25.

Turning to ETNRLKE, the growth estimate is below -0.25.

Take NANGMNGVSRS: the growth estimate was below -0.25.

DLGTVQIYFTGSRTRCRRSA: the growth estimate was below -0.25.

For the substance LATQNPKFWFVRARRLHRQT, the growth estimate is below -0.25.

With LYSGEPPPANLEELPP, the growth estimate is below -0.25.

Turning to ISAFPLPEECCVLTGSSHQD, the growth estimate was below -0.25.

Take ARRDSREYQVQRHHSYYCK: the growth estimate was below -0.25.

With MNSDEPVFRCF, the growth estimate was below -0.25.

In the case of RGVSKACFVGTYIT, the growth estimate was below -0.25.

Consider CTPIY, for which the growth estimate is below -0.25.

In the case of KRLLQKGGG, the growth estimate is below -0.25.

Turning to RVSEVLGSALGASACPLRST, the growth estimate is below -0.25.

VHFISTRAMIGFRAQAGNTN: the growth estimate is below -0.25.

As to HPVIIPGHSIRRLDG, the growth estimate is below -0.25.

For the substance IHQLGEWNAVGAHYLMHIVL, the growth estimate was below -0.25.

For SECAECPVNPDVSLLSRHQR, the growth estimate was below -0.25.

For the substance IVC, the growth estimate was below -0.25.

As for LVSFGRVVGIWKSNVWPGRR, the growth estimate is below -0.25.

Turning to RVGSGRPYDL, the growth estimate is below -0.25.

Turning to ETCRNSRTFG, the growth estimate is below -0.25.

For the substance RYTTPMGTSWHTYLCQLRVI, the growth estimate was below -0.25.

Regarding SGGSYSNGRGMGVSEEPNGP, the growth estimate is below -0.253.

Turning to PRPDLIIE, the growth estimate was below -0.25.

In the case of PWGTSVTGWRGPDGVILGQR, the growth estimate was below -0.25.

For GLSGLKLVSPRSPACISYPV, the growth estimate was below -0.25.

As to AEYVHVKLHGRELE, the growth estimate was below -0.25.

With LCMIAAA, the growth estimate was below -0.25.

Consider TGGKAKLFRAGSTTSHAANP, for which the growth estimate is below -0.25.

Turning to LSLRNSM, the growth estimate is below -0.25.

On to QFDSERRAMSCSIDRTHGRW, for which the growth estimate is below -0.25.

Regarding PDAKSRSVIWSQTG, the growth estimate was below -0.25.

For the substance ARR, the growth estimate is below -0.25.

On to ISVFGRKLCWRRATACTR, for which the growth estimate was below -0.25.

Turning to GPSCTKHTKKPSRGVGSKVA, the growth estimate was below -0.25.

Turning to VLSFYALALFLCAIERNVYG, the growth estimate is below -0.25.

LSDYMPRGPQYCE: the growth estimate was below -0.25.

With AGSVRYVEDCEFEPL, the growth estimate was below -0.25.

As for NRTETGHYTG, the growth estimate was below -0.25.

With GIEPSKGNNKTLSTVI, the growth estimate was below -0.25.

In the case of FWVVPGKPWEITRQTFIDPN, the growth estimate is below -0.25.

For CLWHITNFEQYNIFGLRLTR, the growth estimate is below -0.25.

Turning to QFAPFRYRQSTKRDPCCSAP, the growth estimate is below -0.25.

QDGYFHYSRPCSIPAECYNQ: the growth estimate was below -0.25.

As to DELCLVGGGKSLQLGNRRYG, the growth estimate is below -0.25.

For the substance LFRNLPFTGTDRICCYLNSF, the growth estimate is below -0.25.

Consider HHRHHKGMAKCSMVSLILSW, for which the growth estimate was below -0.25.

For the substance CTTGWKPKKEVRSHGQTTAL, the growth estimate was below -0.25.

As for YASSTAS, the growth estimate was below -0.25.

With DQHMFS, the growth estimate was below -0.25.

On to YVDQ, for which the growth estimate was below -0.25.

On to ELVGISAR, for which the growth estimate is below -0.25.

In the case of QGDPDVRKKYATLTTPCRCH, the growth estimate is below -0.25.

Regarding TVEDAKHFDTHEAIRTWLSQ, the growth estimate is below -0.25.

As for PHAIALLSRLWTSTEFLLCS, the growth estimate was below -0.25.

In the case of PCYI, the growth estimate is below -0.25.

RPLDAGPPRTRRRRYPESRH: the growth estimate was below -0.25.

Turning to FQRATRGKR, the growth estimate was below -0.25.

For VNCLYTEKLRVSAGSPGKRA, the growth estimate is below -0.25.

With DTFTWGCLWWIKKMSGVILI, the growth estimate was below -0.25.

For SVRIPGLSAYRVVDLLDVAP, the growth estimate is below -0.25.

With DYTLVRQGKINTVGGGTVVA, the growth estimate is below -0.25.

Take PTDRKGRNPCPEFWLFK: the growth estimate was below -0.25.

As to CATPPNGYARGTGHTIVHLS, the growth estimate is below -0.25.

LHEGR: the growth estimate was below -0.25.

As for LVTLQPRQTYDQKTTVPARN, the growth estimate is below -0.25.

Turning to VRQGFECSV, the growth estimate was below -0.25.

In the case of IRQVS, the growth estimate was below -0.25.

Take PITSK: the growth estimate is below -0.25.

For the substance CAVGQ, the growth estimate was below -0.25.

Turning to NSTSRDFGCTAGLDGMFHES, the growth estimate was below -0.25.

Consider VRPGLLSIRELDNHRSARFA, for which the growth estimate is below -0.25.

Consider HGSRVGFQPLGRKLERRLGS, for which the growth estimate is below -0.25.

With FESSSRP, the growth estimate is below -0.25.

As to IFTRIDFSS, the growth estimate was below -0.25.

As to ICTSVKVLLGVHWLVRKQGA, the growth estimate is below -0.25.

On to SSSAHT, for which the growth estimate was below -0.25.

Turning to MGTSHRQAGSVAD, the growth estimate is -0.25.

EHIRIDWQHVLGRPRGRRKS: the growth estimate is below -0.25.

Turning to VLPGCAASGEL, the growth estimate was below -0.25.

In the case of GLQSL, the growth estimate is below -0.25.

Regarding RGEPYTGIPQSFGRAAWSFA, the growth estimate is below -0.25.

Turning to AASYGL, the growth estimate is below -0.25.

In the case of PLYLDQVPPGG, the growth estimate is -0.245.

RRGSLQAGREIVVMGTRCPL: the growth estimate is below -0.25.

On to EECNVWWVFSC, for which the growth estimate is below -0.25.

On to GAGSTGTQERLYSSEF, for which the growth estimate was below -0.25.

With LLLSLSMDNAESGDQSATSS, the growth estimate was below -0.25.

Consider ANYPLLRLSLNH, for which the growth estimate is below -0.25.

Take FEGGP: the growth estimate is below -0.25.

Take YRVSYLCLGRSTSYCPWYCA: the growth estimate was below -0.25.

As to SWVAQEGRITGVSPHVPHTR, the growth estimate is below -0.25.

On to ALGTAEVGAPPSLRTDPPCC, for which the growth estimate is below -0.25.

As for NVPSLGEN, the growth estimate was below -0.25.
